Source: publication PMC11715975
Results are given in words; binding and its absence hold for the method and conditions named. In cells and extracts the contact can be indirect. Some results given as binding are weak or reduced against the parent protein; the word gives no strength.

The chains behind the UniProt entries cited, without tags or fusion partners.
UniProt Q15014: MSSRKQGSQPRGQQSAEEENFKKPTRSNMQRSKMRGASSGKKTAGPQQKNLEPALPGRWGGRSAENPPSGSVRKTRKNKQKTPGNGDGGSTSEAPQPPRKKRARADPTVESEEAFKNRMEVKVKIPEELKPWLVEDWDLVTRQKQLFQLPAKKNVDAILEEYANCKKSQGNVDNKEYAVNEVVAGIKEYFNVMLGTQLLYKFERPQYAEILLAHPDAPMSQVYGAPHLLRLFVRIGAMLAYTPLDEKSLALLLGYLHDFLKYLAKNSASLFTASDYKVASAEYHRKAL
UniProt Q9Y4A5: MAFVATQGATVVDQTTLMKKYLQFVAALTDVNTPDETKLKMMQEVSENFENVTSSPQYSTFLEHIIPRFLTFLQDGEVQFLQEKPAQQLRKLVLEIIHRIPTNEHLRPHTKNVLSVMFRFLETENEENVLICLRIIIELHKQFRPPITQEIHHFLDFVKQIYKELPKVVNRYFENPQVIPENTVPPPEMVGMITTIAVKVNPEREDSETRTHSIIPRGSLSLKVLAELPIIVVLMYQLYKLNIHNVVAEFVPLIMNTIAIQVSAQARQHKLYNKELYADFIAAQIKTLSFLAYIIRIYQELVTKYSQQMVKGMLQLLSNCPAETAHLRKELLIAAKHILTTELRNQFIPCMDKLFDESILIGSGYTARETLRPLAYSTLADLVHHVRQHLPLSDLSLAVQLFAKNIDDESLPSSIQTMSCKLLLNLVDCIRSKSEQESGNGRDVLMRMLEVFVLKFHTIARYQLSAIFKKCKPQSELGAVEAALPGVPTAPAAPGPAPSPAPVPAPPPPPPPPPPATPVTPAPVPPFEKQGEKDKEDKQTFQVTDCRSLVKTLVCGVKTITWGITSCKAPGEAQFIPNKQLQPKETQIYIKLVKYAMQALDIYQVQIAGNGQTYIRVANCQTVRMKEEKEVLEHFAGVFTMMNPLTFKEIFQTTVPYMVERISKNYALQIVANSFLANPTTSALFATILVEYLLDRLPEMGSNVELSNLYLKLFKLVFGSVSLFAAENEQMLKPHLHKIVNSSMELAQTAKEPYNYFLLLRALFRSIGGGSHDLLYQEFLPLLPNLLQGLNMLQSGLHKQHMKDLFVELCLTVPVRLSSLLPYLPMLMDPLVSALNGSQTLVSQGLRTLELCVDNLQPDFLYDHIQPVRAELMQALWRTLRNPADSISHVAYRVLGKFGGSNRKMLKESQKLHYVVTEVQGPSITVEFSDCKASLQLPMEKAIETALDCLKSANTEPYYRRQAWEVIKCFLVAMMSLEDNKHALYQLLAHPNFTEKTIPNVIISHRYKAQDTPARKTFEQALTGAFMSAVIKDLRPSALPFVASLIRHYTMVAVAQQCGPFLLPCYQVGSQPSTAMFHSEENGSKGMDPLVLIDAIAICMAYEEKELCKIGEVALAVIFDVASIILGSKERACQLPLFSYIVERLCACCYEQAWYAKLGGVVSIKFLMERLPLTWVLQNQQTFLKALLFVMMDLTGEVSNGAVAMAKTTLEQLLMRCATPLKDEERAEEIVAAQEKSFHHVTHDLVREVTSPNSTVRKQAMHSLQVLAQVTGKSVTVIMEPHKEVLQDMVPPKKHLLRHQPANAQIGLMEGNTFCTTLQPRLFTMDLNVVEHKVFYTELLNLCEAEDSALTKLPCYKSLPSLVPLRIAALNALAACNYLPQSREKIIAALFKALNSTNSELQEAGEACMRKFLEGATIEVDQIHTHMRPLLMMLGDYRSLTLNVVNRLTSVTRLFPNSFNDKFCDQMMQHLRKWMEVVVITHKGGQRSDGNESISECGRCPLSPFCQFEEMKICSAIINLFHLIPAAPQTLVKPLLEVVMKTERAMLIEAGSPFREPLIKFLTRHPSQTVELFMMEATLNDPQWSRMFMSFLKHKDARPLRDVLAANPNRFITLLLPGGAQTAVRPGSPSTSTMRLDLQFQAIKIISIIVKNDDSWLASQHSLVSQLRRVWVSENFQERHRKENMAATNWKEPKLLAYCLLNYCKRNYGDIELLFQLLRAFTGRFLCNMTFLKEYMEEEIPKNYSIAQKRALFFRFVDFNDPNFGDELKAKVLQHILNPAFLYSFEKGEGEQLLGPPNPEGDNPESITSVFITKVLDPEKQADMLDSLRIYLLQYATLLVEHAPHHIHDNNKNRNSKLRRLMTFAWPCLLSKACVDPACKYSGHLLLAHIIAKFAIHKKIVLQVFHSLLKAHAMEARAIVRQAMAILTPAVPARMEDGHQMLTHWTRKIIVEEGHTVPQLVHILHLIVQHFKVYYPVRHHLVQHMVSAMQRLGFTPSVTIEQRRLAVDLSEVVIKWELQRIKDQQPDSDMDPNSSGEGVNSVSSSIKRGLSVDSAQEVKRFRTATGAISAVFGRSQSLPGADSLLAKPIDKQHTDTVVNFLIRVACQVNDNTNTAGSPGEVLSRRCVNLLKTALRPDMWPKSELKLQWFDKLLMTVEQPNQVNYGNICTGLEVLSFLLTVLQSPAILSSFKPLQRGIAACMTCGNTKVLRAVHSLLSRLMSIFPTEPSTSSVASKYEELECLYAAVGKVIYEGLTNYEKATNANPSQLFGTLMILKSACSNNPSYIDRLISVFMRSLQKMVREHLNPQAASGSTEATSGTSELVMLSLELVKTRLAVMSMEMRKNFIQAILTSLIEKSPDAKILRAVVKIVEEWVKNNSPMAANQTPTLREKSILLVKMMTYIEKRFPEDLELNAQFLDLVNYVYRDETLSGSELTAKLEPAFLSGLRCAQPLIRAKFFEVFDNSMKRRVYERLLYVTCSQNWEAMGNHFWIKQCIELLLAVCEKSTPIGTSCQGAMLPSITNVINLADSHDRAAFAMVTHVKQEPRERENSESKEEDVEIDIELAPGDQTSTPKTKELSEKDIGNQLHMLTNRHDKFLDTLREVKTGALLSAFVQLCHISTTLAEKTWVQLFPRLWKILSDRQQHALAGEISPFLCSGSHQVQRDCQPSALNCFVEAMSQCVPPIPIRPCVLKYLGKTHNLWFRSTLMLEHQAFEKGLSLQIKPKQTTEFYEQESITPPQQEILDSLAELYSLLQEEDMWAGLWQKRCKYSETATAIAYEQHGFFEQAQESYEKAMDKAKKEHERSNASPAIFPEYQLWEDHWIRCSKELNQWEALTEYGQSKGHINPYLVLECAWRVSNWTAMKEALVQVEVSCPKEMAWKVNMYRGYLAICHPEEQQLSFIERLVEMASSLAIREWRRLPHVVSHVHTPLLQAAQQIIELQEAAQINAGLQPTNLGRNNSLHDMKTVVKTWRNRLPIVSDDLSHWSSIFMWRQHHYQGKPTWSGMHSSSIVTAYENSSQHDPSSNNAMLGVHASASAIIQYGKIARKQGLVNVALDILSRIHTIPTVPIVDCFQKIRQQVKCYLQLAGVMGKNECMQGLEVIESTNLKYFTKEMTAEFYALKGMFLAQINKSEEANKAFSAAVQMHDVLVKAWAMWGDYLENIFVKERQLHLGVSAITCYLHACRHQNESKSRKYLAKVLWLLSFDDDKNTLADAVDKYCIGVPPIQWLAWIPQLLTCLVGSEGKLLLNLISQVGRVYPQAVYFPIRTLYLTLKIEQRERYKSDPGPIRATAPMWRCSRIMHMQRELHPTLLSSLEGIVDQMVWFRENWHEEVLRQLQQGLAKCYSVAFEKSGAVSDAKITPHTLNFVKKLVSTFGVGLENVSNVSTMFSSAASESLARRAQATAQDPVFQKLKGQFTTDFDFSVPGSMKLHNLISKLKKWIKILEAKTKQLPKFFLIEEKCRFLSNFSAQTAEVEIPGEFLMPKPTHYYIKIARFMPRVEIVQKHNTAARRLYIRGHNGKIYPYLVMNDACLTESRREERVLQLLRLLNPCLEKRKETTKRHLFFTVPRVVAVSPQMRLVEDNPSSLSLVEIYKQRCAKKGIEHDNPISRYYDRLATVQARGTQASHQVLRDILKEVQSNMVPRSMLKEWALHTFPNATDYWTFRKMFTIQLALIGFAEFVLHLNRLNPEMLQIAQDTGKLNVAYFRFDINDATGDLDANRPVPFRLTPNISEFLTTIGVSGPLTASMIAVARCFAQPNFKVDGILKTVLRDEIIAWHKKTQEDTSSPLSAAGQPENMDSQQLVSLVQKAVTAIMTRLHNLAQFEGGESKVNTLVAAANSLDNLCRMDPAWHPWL
UniProt Q92993: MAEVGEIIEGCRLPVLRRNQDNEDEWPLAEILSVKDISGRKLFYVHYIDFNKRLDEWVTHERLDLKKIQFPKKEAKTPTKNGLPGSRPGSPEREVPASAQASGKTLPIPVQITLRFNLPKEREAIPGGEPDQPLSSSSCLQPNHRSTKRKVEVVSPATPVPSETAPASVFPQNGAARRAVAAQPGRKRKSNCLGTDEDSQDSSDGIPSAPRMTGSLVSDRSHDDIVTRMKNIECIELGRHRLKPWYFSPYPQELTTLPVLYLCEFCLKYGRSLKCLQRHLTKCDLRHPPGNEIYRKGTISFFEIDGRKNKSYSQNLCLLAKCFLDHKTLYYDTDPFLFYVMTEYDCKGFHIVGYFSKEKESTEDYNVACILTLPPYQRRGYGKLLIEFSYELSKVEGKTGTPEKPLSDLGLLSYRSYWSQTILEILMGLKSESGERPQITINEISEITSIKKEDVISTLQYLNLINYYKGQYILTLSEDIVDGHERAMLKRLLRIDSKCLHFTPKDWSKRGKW

Target: Mortality factor 4 like 2 (MORF4L2) (UniProt Q15014)
Assay: co-IP; cells lysed in pre-cooled NP-40 lysis buffer with PMSF; supernatant incubated overnight at 4 °C with anti-MORF4L2 or IgG, then protein A/G beads for 2 h; washed 3 times; immunoblot; cell line not stated

Substance | binding
transformation/transcription domain-associated protein (TRRAP) (from UniProt Q9Y4A5 1-3859) | binds
lysine acetyltransferase 5 (TIP60/KAT5) (from UniProt Q92993 1-513) | binds
